Positions count from the first letter of the chain named. These are yes or no findings as the source states them, for the method shown. In cells and extracts the contact can be indirect. Here binding means that the protein was enriched with, or labelled near, the bait; the list need not be complete. For some of these results: Sequences can lack the tags named with a protein.
Columns and labels:
Experiment in all cases: affinity purification with mass spectrometry
[1] = molecular target: GFP-COMMD4 wild-type (human) (UniProt Q9H0A8)
GFP-COMMD4-L41R (human) = GFP-COMMD4-L41R (human) (UniProt Q9H0A8)
[2] = molecular target: T1, GFP-DPYSL5 wild-type (GFP at the amino-terminal end) (human) (UniProt Q9BPU6)
T1 sequence: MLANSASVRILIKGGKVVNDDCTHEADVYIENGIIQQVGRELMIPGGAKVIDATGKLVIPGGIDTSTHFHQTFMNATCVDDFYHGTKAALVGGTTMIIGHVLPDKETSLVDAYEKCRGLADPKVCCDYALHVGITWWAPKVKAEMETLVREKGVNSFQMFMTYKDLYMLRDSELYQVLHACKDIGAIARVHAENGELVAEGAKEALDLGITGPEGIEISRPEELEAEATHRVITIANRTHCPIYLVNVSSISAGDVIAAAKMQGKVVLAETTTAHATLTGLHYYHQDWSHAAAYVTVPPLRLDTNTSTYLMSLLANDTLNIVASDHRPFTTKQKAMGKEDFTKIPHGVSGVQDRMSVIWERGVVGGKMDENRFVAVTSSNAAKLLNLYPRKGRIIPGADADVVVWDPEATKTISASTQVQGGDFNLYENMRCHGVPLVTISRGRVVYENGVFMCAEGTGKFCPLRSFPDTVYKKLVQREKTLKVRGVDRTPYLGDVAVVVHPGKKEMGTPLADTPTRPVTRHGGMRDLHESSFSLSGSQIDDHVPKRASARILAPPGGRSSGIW

The chains behind the UniProt entries cited, without tags or fusion partners. Where a name states a change or a piece, a line headed by the entry shows the natural chain unless it says otherwise.
UniProt Q9H0A8: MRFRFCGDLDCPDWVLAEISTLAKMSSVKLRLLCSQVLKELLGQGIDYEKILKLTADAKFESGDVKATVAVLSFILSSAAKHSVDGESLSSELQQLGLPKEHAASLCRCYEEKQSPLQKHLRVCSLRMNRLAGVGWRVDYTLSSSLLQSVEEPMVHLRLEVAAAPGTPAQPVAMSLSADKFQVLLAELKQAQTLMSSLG
UniProt Q8TCE6: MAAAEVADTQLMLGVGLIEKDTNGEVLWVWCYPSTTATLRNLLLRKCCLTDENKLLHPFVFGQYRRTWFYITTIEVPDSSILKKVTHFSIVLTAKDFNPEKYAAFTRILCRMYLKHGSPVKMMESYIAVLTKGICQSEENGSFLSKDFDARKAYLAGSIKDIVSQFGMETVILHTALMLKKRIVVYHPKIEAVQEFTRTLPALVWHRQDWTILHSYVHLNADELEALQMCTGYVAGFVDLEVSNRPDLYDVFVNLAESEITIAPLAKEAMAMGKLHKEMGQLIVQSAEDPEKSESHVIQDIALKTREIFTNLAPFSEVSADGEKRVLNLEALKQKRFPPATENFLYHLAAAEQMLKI
UniProt Q14194: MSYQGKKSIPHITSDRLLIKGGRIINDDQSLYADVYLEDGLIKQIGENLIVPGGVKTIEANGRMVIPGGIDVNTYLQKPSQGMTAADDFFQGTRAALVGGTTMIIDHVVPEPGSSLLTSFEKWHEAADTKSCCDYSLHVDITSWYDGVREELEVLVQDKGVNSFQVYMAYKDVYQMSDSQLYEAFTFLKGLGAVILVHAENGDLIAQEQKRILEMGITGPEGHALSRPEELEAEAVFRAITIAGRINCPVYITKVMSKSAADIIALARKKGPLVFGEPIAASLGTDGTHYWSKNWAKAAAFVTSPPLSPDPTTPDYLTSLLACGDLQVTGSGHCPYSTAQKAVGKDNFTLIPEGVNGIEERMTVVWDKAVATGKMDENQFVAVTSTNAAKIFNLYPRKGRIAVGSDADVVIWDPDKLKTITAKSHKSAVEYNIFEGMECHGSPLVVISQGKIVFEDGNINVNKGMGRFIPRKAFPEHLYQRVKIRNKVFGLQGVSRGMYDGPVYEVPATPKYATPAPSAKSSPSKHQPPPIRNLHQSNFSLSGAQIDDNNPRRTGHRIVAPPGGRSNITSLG
UniProt Q14195: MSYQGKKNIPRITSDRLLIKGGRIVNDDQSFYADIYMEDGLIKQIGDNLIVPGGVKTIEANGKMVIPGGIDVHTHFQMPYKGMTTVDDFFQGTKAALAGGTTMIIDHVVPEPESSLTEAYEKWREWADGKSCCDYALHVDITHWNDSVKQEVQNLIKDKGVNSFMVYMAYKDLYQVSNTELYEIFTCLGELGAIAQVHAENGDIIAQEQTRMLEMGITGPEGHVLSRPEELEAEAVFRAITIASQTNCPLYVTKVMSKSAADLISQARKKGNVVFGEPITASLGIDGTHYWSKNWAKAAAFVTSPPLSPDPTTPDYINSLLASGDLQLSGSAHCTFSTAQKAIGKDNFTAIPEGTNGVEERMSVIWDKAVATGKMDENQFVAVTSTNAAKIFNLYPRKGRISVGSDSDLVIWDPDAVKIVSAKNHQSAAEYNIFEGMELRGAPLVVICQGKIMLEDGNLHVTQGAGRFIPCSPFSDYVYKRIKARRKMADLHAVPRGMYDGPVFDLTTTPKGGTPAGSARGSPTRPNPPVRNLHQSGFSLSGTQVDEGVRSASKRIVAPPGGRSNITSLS

[3] = molecular target: T2, DPYSL5-E41K tagged with GFP at the carboxy-terminal end (human) (UniProt Q9BPU6)
T2 sequence: T1 sequence with E41K

[4] = molecular target: T3, DPYSL5 wild-type tagged with GFP at the carboxy-terminal end (human) (UniProt Q9BPU6)
T3 sequence: T1 sequence

[5] = molecular target: T4, GFP-DPYSL5-E41K (GFP at the amino-terminal end) (human) (UniProt Q9BPU6)
T4 sequence: T1 sequence with E41K

Measured: binding

DENND10 (from UniProt Q8TCE6 1-357)
binds: [1] | GFP-COMMD4-L41R (human)

DPYSL1 (from UniProt Q14194 1-572)
binds: [2] | [3] | [4] | [5]

DPYSL3 (from UniProt Q14195 1-570)
binds: [2] | [3] | [4] | [5]

Source: publication doi:10.1101/2024.08.17.24311658
